Source: ChEMBL document CHEMBL3988442, “University of Dundee, Small-Polar-MMV Screening Library” (2021).

Mtb cholesterol medium: 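Whole-cell growth test on Mycobacterium tuberculosis, read after 4 days in a medium based on cholesterol and the lipid DPPC; the read-out is not stated. Concentration: 50 µM. Higher reads as more growth inhibition (inferred: compounds with an IC50 in retests scored well above the rest). About 69,000 compounds were tested under these conditions; 0.54% (about 370) showed 50% or more at least once.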
Mtb glucose medium: 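Phenotypic screen: M. tuberculosis growth, glucose 7H9 medium, 3 days; the read-out is not stated. Compounds at 50 µM. Direction is inferred from retests: higher values go with more growth inhibition. About 69,000 compounds were tested under these conditions; 1.1% (about 760) showed 50% or more at least once.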

Values are the deposited “Percent Effect”, in %.
The controls that fix the scale are not given in the record; negative values are as filed.
This is an unselected part of the compounds tested.
Two or more numbers in one place are separate tests of the same structure; such repeats can differ widely.

SMILES	Mtb cholesterol medium	Mtb glucose medium
CC(C)CCNC(=O)Cc1cnc(-n2cccc2)s1	23.74%	0.6781%
Cc1ccc(NS(=O)(=O)c2ccc(C#N)cc2)c(CN(C)C)c1	7.443%	5.731%
[H][C@]12C[C@@H](CN(C)C)N(CC3CC3)[C@@]1([H])CCN(Cc1nccn1C)C2	-28.43%	-10.21%
CN1CCN(Cc2ccoc2)Cc2cccnc21	-12.31%	-14.88%
Cc1nc2c(c(NCc3cc4ccccc4s3)n1)CCNCC2	17.04%	62.52%
COc1cc(C(=O)NCCc2ccc(Cl)cc2)on1	37.2%	38.42% & 45.59%
O=C1NCCN(CC2CCCCC2)C1CC(=O)N1CCc2n[nH]cc2C1 (centres undefined)	10.26%	-16.4% & 3.588%
Cc1cccc(C2(NC(=O)CCN3C(=O)CCC3=O)CCCC2)c1	-7.9%	-19.55%
Cc1nc2n(n1)CC(NCc1ccccc1OCC(=O)N(C)C)CC2 (centres undefined)	-7.576%	0.3807% & -6.05%
c1cc(-c2noc(CN3CCn4c(nnc4C4CC4)C3)n2)cs1	-3.493%	-0.4667%
C[C@H]1CC[C@H](C(=O)N2CCC(n3cc(C4(O)CCCC4)nn3)CC2)CC1	-27.45%	-22.52%
O=C(O)C(F)(F)F.[H][C@@]12COC[C@]1(CNC(=O)c1ccco1)CN(Cc1sccc1C)C2	-2.614% & -24.32%	1.774%
Cc1ccc(-c2nc(CNC3CCc4ncnn4C3)co2)c(C)c1 (centres undefined)	1.926%	27.1%
CCCc1cc(C(=O)N(C)Cc2cnn(-c3cccc(OC)c3)c2)[nH]n1	14.35%	25.76%
COC1(CNC(=O)c2cccc(C#N)c2)CCSC1 (centres undefined)	97.17%	-9.787%
CC(=O)Nc1ccc2c(c1)CN(C(=O)c1ccco1)CC2	-17.07%	-8.511%
Cc1nc(N(C)Cc2cccc(O)c2)nc2cc(S(C)(=O)=O)ccc12	11.39%	23.01%
CC(CNS(=O)(=O)CCCC#N)c1ccsc1 (centres undefined)	-11.02%	10.92%
CCOc1ccc(CC(=O)N(CCC(=O)OC)CC2CCCO2)cc1 (centres undefined)	-17.9%	-27.89% & 10.24%
CN(C)S(=O)(=O)CCCN1CCCC1c1noc(C2CC2)n1 (centres undefined)	4.202%	-28.93%
Cc1ccc(N2CCCN(C(=O)CCCn3ccnc3C)CC2)nn1	-26.75%	-38.87%
Cn1c(N)c2c(=O)n(C)c(-c3ccc(Cl)cc3Cl)cc2c(C#N)c1=O	7.634%	-0.6758% & 6.977%
Cc1c(C(=O)NC2=NCCS2)cnn1-c1ccc(Br)cc1	-11.1%	-3.44%
Cc1ccc(CN2CCC3(CC2)CC(c2cccnc2)CO3)s1.O=C(O)C(F)(F)F.O=C(O)C(F)(F)F (centres undefined)	4.884% & 4.87%	11.28%
CCC/N=c1/c(NC(=O)NCCCOC)c(O)oc2ccccc12	-21.75%	-6.47%

The last 3 entries again:

SMILES	Mtb cholesterol medium	Mtb glucose medium
Cc1c(C(=O)NC2=NCCS2)cnn1-c1ccc(Br)cc1	-11.1%	-3.44%
Cc1ccc(CN2CCC3(CC2)CC(c2cccnc2)CO3)s1.O=C(O)C(F)(F)F.O=C(O)C(F)(F)F (centres undefined)	4.884% & 4.87%	11.28%
CCC/N=c1/c(NC(=O)NCCCOC)c(O)oc2ccccc12	-21.75%	-6.47%